Measured values: patent US7081485B2, “Non-volatile dental compositions containing multifunctional acrylate compounds and lacking an oxygen-inhibited layer” (Bisco, Inc., priority 2002, dated 2006)

How the values were obtained:
[1] = Percent degree of conversion of hexafunctional acrylate resin with photoinitiators; settings: for DC, %: 500 mW/cm^2; for DC (std. dev.): TPO at 3%, triplicate
[2] = Pencil hardness of photoinitiator resins coated on composite disks; settings: 30 seconds at 300 mW/cm^2
[3] = Initiator 3%, EDMAB 0%, 10 sec (no air)
[4] = Initiator 0.2%, EDMAB 1%, 5 sec
[5] = Initiator 0.2%, EDMAB 1%, 10 sec (no air)
[6] = Initiator 0.2%, EDMAB 1%, 10 sec
[7] = Initiator 0.2%, EDMAB 1%, 30 sec

| Structure (SMILES) | DC, % ([1]; Initiator 3%, EDMAB 0%, 5 sec) [%] | DC, % [1, 3] [%] | DC, % ([1]; Initiator 3%, EDMAB 0%, 10 sec) [%] | DC, % ([1]; Initiator 3%, EDMAB 0%, 30 sec) [%] | Pencil hardness ([2]; Initiator 3%, EDMAB 0%) [H] | DC, % [1, 4] [%] | DC, % [1, 5] [%] | DC, % [1, 6] [%] | DC, % [1, 7] [%] | further results |
| --- | --- | --- | --- | --- | --- | --- | --- | --- | --- | --- |
| CC12CCC(C(=O)C1=O)C2(C)C (stereo not shown) [CQ, camphorquinone] | – | – | – | – | – | – | – | – | – | DC, % ([1]; Initiator 1%, EDMAB 1%, 5 sec): 24%; DC, % ([1]; Initiator 1%, EDMAB 1%, 10 sec (no air)): 47%; DC, % ([1]; Initiator 1%, EDMAB 1%, 10 sec): 27%; DC, % ([1]; Initiator 1%, EDMAB 1%, 30 sec): 30%; DC, % ([1]; Initiator 3%, EDMAB 3%, 5 sec): 43%; DC, % ([1]; Initiator 3%, EDMAB 3%, 10 sec (no air)): 65%; DC, % ([1]; Initiator 3%, EDMAB 3%, 10 sec): 50%; DC, % ([1]; Initiator 3%, EDMAB 3%, 30 sec): 58%; Pencil hardness ([2]; Initiator 1%, EDMAB 1%): 1H; Pencil hardness ([2]; Initiator 3%, EDMAB 3%): >5H |
| Cc1cc(C)c(C(=O)P(=O)(C(=O)c2c(C)cc(C)cc2C)c2ccccc2)c(C)c1 [Composition 819, bis(2,4,6-trimethylbenzoyl)-phenylphosphineoxide] | 49 | 65 | 55 | 58 | >5 | – | – | – | – | DC, % ([1]; Initiator 1.5%, EDMAB 0%, 5 sec): 44%; DC, % ([1]; Initiator 1.5%, EDMAB 0%, 10 sec (no air)): 57%; DC, % ([1]; Initiator 1.5%, EDMAB 0%, 10 sec): 47%; DC, % ([1]; Initiator 1.5%, EDMAB 0%, 30 sec): 47%; Pencil hardness ([2]; Initiator 1.5%, EDMAB 0%): 4H |
| CCCCOc1ccc2cc3cc(I)c(=O)c(I)c-3oc2c1 [HNu, 5,7-diiodo-3-butoxy-6-fluorone] | – | – | – | – | – | 0 | 23 | 0 | 0 | – |
| O=C1C(=O)c2ccccc2-c2ccccc21 [PAQ, phenanthrenequinone] | – | – | – | – | – | 0 | 33 | 0 | 0 | – |
| Cc1cc(C)c(C(=O)P(=O)(c2ccccc2)c2ccccc2)c(C)c1 [TPO, 2,4,6-trimethylbenzoyl-diphenylphosphinate] | 29 | 53 | 52 | 52 | 5 | – | – | – | – | DC, % ([1]; Initiator 2%, EDMAB 0%, 5 sec): 30%; DC, % ([1]; Initiator 2%, EDMAB 0%, 10 sec (no air)): 64%; DC, % ([1]; Initiator 2%, EDMAB 0%, 10 sec): 39%; DC, % ([1]; Initiator 2%, EDMAB 0%, 30 sec): 39%; DC (std. dev.) ([1]; 10 seconds, air absent): 57.4% (1.3%); DC (std. dev.) ([1]; 10 seconds, air present): 46.9% (3.0%); DC (std. dev.) ([1]; 30 seconds, air present): 51.6% (4.3%); Pencil hardness ([2]; Initiator 2%, EDMAB 0%): 4H |
| CCOP(=O)(C(=O)c1c(C)cc(C)cc1C)c1ccccc1 (stereo not shown) [TPOL, ethyl-2,4,6-trimethylbenzoyl-phenylphosphinate] | 29 | 56 | 38 | 57 | 4 | – | – | – | – | – |
